Binding data for four molecules are collected here from doi:10.1101/2023.08.09.552644.

Chains of the proteins cited; added tags and fusions are not shown.
UniProt Q9R1E0: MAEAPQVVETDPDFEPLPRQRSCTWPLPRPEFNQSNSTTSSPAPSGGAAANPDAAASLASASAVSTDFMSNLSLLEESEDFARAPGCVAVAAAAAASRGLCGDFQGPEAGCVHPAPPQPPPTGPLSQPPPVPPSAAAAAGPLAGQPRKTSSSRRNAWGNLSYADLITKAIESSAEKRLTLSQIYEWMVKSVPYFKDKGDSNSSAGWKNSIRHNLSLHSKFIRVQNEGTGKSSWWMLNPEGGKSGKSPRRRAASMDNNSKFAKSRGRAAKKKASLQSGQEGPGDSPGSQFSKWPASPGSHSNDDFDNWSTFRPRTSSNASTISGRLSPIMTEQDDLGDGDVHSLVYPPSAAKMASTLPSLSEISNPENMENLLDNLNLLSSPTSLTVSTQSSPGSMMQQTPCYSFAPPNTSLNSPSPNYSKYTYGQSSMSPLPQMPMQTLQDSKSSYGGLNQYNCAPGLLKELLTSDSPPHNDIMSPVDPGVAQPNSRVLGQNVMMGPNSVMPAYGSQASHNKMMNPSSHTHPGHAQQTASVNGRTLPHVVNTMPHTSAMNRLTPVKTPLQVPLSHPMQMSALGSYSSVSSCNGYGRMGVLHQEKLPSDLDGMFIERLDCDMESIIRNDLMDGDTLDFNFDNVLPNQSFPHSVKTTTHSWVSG
UniProt Q9WVH4: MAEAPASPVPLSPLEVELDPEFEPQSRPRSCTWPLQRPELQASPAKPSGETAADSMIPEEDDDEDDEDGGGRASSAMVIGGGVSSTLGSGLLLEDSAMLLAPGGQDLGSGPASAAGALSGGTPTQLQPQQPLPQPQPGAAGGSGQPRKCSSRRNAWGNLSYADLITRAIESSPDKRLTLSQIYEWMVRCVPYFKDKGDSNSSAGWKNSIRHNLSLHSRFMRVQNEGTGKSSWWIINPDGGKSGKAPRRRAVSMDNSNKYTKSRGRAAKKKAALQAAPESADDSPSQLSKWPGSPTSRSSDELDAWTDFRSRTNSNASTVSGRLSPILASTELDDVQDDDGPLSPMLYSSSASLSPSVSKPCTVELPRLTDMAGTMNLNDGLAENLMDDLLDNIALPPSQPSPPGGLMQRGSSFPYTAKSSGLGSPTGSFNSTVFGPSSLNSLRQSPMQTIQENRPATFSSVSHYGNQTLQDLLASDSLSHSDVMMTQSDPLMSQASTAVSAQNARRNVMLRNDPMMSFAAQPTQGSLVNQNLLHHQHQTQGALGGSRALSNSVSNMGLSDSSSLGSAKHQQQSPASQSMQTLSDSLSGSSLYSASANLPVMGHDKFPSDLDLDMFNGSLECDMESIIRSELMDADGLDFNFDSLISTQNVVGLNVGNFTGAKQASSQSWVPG
UniProt Q9WVH3: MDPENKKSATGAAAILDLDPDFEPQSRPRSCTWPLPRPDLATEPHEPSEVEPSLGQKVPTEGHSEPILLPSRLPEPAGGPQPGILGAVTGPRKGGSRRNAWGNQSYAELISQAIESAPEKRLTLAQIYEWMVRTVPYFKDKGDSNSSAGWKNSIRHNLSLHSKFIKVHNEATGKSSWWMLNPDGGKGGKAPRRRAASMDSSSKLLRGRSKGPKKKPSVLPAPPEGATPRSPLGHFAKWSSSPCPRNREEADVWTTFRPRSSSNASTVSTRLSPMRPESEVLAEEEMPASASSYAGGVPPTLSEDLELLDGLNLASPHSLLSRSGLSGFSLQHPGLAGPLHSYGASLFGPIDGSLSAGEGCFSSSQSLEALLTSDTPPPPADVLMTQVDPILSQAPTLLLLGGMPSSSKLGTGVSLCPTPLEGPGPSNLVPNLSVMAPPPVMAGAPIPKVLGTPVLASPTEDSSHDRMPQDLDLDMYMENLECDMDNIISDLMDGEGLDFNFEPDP
UniProt P06537: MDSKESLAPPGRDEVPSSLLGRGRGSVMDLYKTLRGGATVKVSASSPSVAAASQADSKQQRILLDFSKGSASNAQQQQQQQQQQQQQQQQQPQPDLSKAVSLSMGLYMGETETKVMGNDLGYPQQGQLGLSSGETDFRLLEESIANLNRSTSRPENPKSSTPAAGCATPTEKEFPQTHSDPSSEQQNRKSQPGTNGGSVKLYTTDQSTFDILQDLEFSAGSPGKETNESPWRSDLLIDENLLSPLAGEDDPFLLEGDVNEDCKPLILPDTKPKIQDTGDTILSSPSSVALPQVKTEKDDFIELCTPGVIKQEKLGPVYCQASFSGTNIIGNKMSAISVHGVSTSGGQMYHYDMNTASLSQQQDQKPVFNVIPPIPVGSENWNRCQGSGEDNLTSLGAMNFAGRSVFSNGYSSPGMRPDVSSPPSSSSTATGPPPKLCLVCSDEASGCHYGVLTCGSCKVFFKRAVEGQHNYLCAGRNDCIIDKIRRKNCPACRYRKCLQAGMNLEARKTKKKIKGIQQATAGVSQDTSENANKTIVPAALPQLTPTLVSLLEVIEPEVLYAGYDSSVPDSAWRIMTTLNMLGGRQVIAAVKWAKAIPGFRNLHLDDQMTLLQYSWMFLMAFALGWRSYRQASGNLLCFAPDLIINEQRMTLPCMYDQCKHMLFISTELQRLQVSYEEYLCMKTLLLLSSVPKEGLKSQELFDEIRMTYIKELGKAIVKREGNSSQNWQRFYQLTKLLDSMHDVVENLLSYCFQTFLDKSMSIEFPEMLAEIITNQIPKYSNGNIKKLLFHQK

Results are given in words; binding and its absence hold for the method and conditions named. In cells and extracts the contact can be indirect. Some binding calls cover weakened binding; strength is not graded here. For some of these results: Where a sequence is shown, tags or fusion partners need not be part of it.

Assay [1] concerns the target Foxo1 (NanoBiT construct) (mouse) (UniProt Q9R1E0). In words: split reporter.
The target in assay [2] is Foxo3 (NanoBiT construct) (mouse) (UniProt Q9WVH4). The assay is described as follows: split reporter.
Assay [3] concerns the target Foxo4 (NanoBiT construct) (mouse) (UniProt Q9WVH3). In words: split reporter.
Assay [4] deals with glucocorticoid receptor (Nr3c1), LgBiT-tagged (NanoBiT construct) (mouse) (UniProt P06537). The assay is described as follows: split reporter.
The target in assay [5] is Foxo1 (FLAG- or HA-tagged, co-immunoprecipitation construct) (mouse) (UniProt Q9R1E0). The assay is described as follows: co-IP.

B1: Mkl1 (NanoBiT construct) (protein, UniProt Q8K4J6 1-964)
chain: MTLLEPEMLMMAVQSVLQLKLQQRRTREELVSQGIMPPLKSPAAFHEQRRSLERARTEDYLKRKIRSRPERAELVRMHILEETSAEPSLQAKQLKLKRARLADDLNEKIAQRPGPMELVEKNILPVESSLKEAIIVGQVNYPKVADSSSFDEDSSDALSPEQPASHESQGSVPSPLESRVSDPLPSATSISPTQVLSQLPMAPDPGETLFLAEQPPLPPAPLLPPSLANGSIVPTAKPAPTLIKQSQPKSASEKSQRSKKAKELKPKVKKLKYHQYIPPDQKQDKGAPAMDSSYAKILQQQQLFLQLQILNQQQQQQQQQHYNYQAILPAPPKPSAETPGSSAPTPSRSLSTSSSPSSGTPGPSGLARQSSTALAAKPGALPANLDDMKVAELKQELKLRSLPVSGTKTELIERLRAYQDQVSPAPGAPKAPATTSVLSKAGEVVVAFPAALLSTGSALVTAGLAPAEMVVATVTSNGMVKFGSTGSTPPVSPTPSERSLLSTGDENSTPGDAFGEMVTSPLTQLTLQASPLQIVKEEGARAASCCLSPGARAELEGLDKDQMLQEKDKQIEELTRMLQQKQQLVELLRLQLEQQKRAQQPAPASSPVKRESGFSSCQLSCQPQGSAHAFGSGLVVPTTNHGDTQAPAPESPPVVVKQEAGPPEPDLAPSSQLLLGSQGTSFLKRVSPPTLVTDSTGTHLILTVTNKSADGPGLPAGSPQQPLSQPGSPAPGPPAQMDLEHPPQPPFATPTSLLKKEPPGYEETVTQQPKQQENGSSSQHMDDLFDILIQSGEISADFKEPPSLPGKEKSPPAAAAYGPPLTPQPSPLSELPQAAPPPGSPTLPGRLEDFLESSTGLPLLTSGHEGPEPLSLIDDLHSQMLSSSAILDHPPSPMDTSELHFAPEPSSGMGLDLAVGHLDSMDWLELSSGGPVLSLAPLSTAAPSLFSMDFLDGHDLQLHWDSCL
As for B1, the binding entry in assay [1], in assay [2], in assay [3] and in assay [4] was “binds” in each case.

B2: Mkl1 (FLAG- or HA-tagged, co-immunoprecipitation construct) (protein, UniProt Q8K4J6 1-964)
chain: B1 chain
As to B2, in assay [5], the binding entry was “binds”.

B3: Mkl2 (FLAG- or HA-tagged, co-immunoprecipitation construct) (protein, UniProt P59759 1-1080)
chain: MIDSSKKQPQGFPEILTAEDFEPFKEKECLEGSNQKSLKEVLQLRLQQRRTREQLVDQGIMPPLKSPAAFHEQIKSLERARTENFLKHKIRSRPDRSELVRMHILEETFAEPSLQATQMKLKRARLADDLNEKIAQRPGPMELVEKNILPVDSSVKEAIIGVVKEDYPHTHGEFSFDEDSSDALSPDQPASQESQGSAASPSEPKVSASPPPVTASTPAQFTSVSPAVPEFLKTPLTADQPPTRSTAPVLPTNTVSSAKSGPMLVKQSHPKNPNDKHRSKKCKDPKPRVKKLKYHQYIPPNQKGEKSEPQMDSNYARLLQQQQLFLQLQILSQQQQQQQQQHYNYQTILPAPIKTDKNSSSGSNSGSSSSMPARRPGPLPSSLDDLKVSELKTELKLRGLPVSGTKPDLIERLKPYQEVTSSNLATGSIVAVSSATIVTSNPEVTVALPVTTLHNAVTSSVSTFKADLALPATSSVPHVENAHSPLPISPSPSEQSSLSTDDTNMTDTFTEIMTMMSPSQLLCSSPLRVVSHDDSLSPSSSTLSTLELDAAEKDRKLQEKEKQIEELKRKLEQEQKLVEVLKMQLEVEKRGQQRPPDPQPSDPPHPFNTSDPKHGSVGSSIKDEASLPDCSSPQQPITVPGHSVGQPISTGSQTLVAKKTVVVKQEVPMAQAEQQNVVSQFYLSSQGQPPALVAQPQALLTTQTTQLLLPVSIQGSNVTSVQLPVGSLQLQTPAQGRVQAQPHVAAATQVPAAALPSALTSALPQKQEAFPQHVLGQPQPVRKVFTNSAPNTVLQYQRQPGPTNQQPFVSKTSNPALQSRTAPLAPLQNGPSLASKPSSPPPPQQFVVQHSLFATPITKTKDPPRYEEAIKQTRSTQPALPEVSSVHSQQMDDLFDILIKSGEISFPIKEEPSPISKMKPVTASITTMPVNTVVSRPPPQVQIAPPVSLEPVNSLSASLENQLEAFLDGTLPSATDTGPLQNSSEDRESFSLIEDLQNDLLSHSSMLYQSHSPMETSEAQLVSGTPCLSLDLSDSNLDNMEWLDITMPTTSSGLTPLSTTAPSMFSADFLDPQDLPLPWD
B3: the binding result in assay [5] is on record as “binds”.

B4: Mkl2 (NanoBiT construct) (protein, UniProt P59759 1-1080)
chain: B3 chain
Take B4: the binding result in assay [1], in assay [2], in assay [3] and in assay [4] was “binds” throughout.
